# Measurements reported in PubChem BioAssay AID1259308 (NCATS, 2017).
# Aim: 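Knock-downs that increase output of a recombinant reporter protein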 (primary screen)
# Cells: human HEK293 embryonic kidney cells stably expressing firefly luciferase (HEK-CMV-Luc2-Hygro)
# Knock-down reagent: single siRNA against human genes, 0.8 pmol siRNA per well
# Duration: 72 h
# Measured: 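Reporter luminescence and viable-cell signal on separate replicate plates, given as percent of non-targeting control and median/MAD z-scores, plus per-cell luciferase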
# Direction: total luciferase, z-score: higher = more reporter protein produced
# Hit rule: 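Active when the median/MAD z-score for overall luciferase is greater than 3; a gene was taken forward for validation with new siRNAs if at least two of its three siRNAs passed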
# Meaning of the calls: active = raised luciferase; inactive = no rise
# In all, the deposit lists about 59,000 reagents; this is an unselected part. In the full data, about 1,510 (2.6%) were called active. 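Calls use total luciferase alone and ignore viability, so some active siRNAs may act by altering cell number.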 The numbers tell different reagents against one gene apart. Further read-outs or replicates are left out here. Reagent sequences are not shown.
gene symbol,reagent,"total luciferase, z-score",outcome
TMEM31 (transmembrane protein 31),1,0.893,inactive
TMEM31 (transmembrane protein 31),2,1.08,inactive
TMEM31 (transmembrane protein 31),3,-0.733,inactive
UBA2 (ubiquitin like modifier activating enzyme 2),1,1.14,inactive
UBA2 (ubiquitin like modifier activating enzyme 2),2,0.0972,inactive
UBA2 (ubiquitin like modifier activating enzyme 2),3,0.0575,inactive
TMEM45B (transmembrane protein 45B),1,4.59,active
TMEM45B (transmembrane protein 45B),2,2.02,inactive
TMEM45B (transmembrane protein 45B),3,-1.24,inactive
LOC646670 (retired record),1,-0.375,inactive
LOC646670 (retired record),2,-1.11,inactive
LOC646670 (retired record),3,0.571,inactive
KCNE3,1,1.18,inactive
KCNE3,2,1.22,inactive
KCNE3,3,1.54,inactive
ARHGAP18 (Rho GTPase activating protein 18),1,-1.87,inactive
ARHGAP18 (Rho GTPase activating protein 18),2,-0.432,inactive
ARHGAP18 (Rho GTPase activating protein 18),3,-0.422,inactive
BTN3A3 (butyrophilin subfamily 3 member A3),1,0.404,inactive
BTN3A3 (butyrophilin subfamily 3 member A3),2,-1.23,inactive
BTN3A3 (butyrophilin subfamily 3 member A3),3,-1.19,inactive
AP2M1 (adaptor related protein complex 2 subunit mu 1),1,0.505,inactive
AP2M1 (adaptor related protein complex 2 subunit mu 1),2,1.43,inactive
AP2M1 (adaptor related protein complex 2 subunit mu 1),3,5.04,active
ZNF19 (zinc finger protein 19),1,-0.905,inactive
ZNF19 (zinc finger protein 19),2,-0.292,inactive
ZNF19 (zinc finger protein 19),3,-1.79,inactive
PLEKHG4B (pleckstrin homology and RhoGEF domain containing G4B),1,-0.789,inactive
PLEKHG4B (pleckstrin homology and RhoGEF domain containing G4B),2,0.221,inactive
PLEKHG4B (pleckstrin homology and RhoGEF domain containing G4B),3,0.687,inactive
ZNF721 (zinc finger protein 721),1,0.599,inactive
ZNF721 (zinc finger protein 721),2,1,inactive
ZNF721 (zinc finger protein 721),3,-2.3,inactive
S100A7A (S100 calcium binding protein A7A),1,0.683,inactive
S100A7A (S100 calcium binding protein A7A),2,0.949,inactive
S100A7A (S100 calcium binding protein A7A),3,-0.63,inactive
CABIN1 (calcineurin binding protein 1),1,-0.322,inactive
CABIN1 (calcineurin binding protein 1),2,0.937,inactive
CABIN1 (calcineurin binding protein 1),3,-0.744,inactive
DEFB127 (defensin beta 127),1,-1.33,inactive
DEFB127 (defensin beta 127),2,1.6,inactive
DEFB127 (defensin beta 127),3,0.201,inactive
ASB2 (ankyrin repeat and SOCS box containing 2),1,0.752,inactive
ASB2 (ankyrin repeat and SOCS box containing 2),2,0.433,inactive
ASB2 (ankyrin repeat and SOCS box containing 2),3,-0.931,inactive
PITX1 (paired like homeodomain 1),1,1.47,inactive
PITX1 (paired like homeodomain 1),2,0.968,inactive
PITX1 (paired like homeodomain 1),3,-1.49,inactive
FBXL22 (F-box and leucine rich repeat protein 22),1,-1.78,inactive
FBXL22 (F-box and leucine rich repeat protein 22),2,-0.163,inactive
FBXL22 (F-box and leucine rich repeat protein 22),3,-2.24,inactive
ADRB1 (adrenoceptor beta 1),1,-0.0977,inactive
ADRB1 (adrenoceptor beta 1),2,0.0805,inactive
ADRB1 (adrenoceptor beta 1),3,1.71,inactive
CARNMT1 (carnosine N-methyltransferase 1),1,1.05,inactive
CARNMT1 (carnosine N-methyltransferase 1),2,0.85,inactive
CARNMT1 (carnosine N-methyltransferase 1),3,-1.28,inactive

Records listed so far called active:
gene symbol,reagent,"total luciferase, z-score",outcome
TMEM45B (transmembrane protein 45B),1,4.59,active
AP2M1 (adaptor related protein complex 2 subunit mu 1),3,5.04,active
